From publication PMC4330392
Results are given in words; binding and its absence hold for the method and conditions named. For some assays here: Binding seen in cells or lysates may run through a third protein. Some results given as binding are weak or reduced against the parent protein; the word gives no strength.

Protein sequences, listed by entry. Tags and fused reporters are not part of them. Lines headed by an entry give the natural chain unless they say otherwise; changes in a name come on top. Chains listed by the source or under a name are the forms on record and can include a tag or linker.
UniProt Q92466: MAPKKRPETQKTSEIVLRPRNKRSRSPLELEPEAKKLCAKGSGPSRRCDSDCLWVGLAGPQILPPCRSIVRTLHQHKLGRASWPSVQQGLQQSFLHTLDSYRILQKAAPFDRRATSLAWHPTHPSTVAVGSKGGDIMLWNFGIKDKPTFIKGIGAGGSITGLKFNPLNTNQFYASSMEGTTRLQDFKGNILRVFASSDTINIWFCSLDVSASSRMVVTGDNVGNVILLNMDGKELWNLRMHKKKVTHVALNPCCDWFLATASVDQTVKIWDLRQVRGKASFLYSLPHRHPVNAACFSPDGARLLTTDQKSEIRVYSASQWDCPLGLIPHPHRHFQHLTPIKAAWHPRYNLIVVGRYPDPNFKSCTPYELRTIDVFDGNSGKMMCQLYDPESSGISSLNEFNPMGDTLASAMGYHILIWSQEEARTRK
DDB2-BP5KR (recombinant) (Q92466, form named): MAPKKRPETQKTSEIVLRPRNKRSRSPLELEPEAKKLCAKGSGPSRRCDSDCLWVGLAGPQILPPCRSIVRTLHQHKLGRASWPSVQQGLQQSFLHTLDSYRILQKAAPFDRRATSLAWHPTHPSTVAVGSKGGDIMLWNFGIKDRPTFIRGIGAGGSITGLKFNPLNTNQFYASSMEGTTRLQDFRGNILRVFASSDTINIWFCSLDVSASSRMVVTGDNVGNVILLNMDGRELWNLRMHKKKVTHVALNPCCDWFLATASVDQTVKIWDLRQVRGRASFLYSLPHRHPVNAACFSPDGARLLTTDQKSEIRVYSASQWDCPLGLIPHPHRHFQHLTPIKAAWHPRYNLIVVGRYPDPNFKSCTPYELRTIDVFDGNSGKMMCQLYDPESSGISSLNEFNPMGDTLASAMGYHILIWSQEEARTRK
DDB2-Ndel/BP5KR (recombinant) (Q92466, form named): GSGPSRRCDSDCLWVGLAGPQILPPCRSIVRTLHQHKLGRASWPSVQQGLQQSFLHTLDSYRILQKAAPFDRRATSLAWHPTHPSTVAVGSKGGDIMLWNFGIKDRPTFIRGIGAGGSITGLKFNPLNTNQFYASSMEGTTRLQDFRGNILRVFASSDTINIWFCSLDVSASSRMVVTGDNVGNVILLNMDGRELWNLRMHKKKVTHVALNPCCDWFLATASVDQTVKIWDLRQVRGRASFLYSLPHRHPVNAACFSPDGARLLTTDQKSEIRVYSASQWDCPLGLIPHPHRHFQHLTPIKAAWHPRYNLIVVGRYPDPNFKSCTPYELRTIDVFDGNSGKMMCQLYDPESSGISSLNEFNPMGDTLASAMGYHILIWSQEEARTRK
UniProt Q16531: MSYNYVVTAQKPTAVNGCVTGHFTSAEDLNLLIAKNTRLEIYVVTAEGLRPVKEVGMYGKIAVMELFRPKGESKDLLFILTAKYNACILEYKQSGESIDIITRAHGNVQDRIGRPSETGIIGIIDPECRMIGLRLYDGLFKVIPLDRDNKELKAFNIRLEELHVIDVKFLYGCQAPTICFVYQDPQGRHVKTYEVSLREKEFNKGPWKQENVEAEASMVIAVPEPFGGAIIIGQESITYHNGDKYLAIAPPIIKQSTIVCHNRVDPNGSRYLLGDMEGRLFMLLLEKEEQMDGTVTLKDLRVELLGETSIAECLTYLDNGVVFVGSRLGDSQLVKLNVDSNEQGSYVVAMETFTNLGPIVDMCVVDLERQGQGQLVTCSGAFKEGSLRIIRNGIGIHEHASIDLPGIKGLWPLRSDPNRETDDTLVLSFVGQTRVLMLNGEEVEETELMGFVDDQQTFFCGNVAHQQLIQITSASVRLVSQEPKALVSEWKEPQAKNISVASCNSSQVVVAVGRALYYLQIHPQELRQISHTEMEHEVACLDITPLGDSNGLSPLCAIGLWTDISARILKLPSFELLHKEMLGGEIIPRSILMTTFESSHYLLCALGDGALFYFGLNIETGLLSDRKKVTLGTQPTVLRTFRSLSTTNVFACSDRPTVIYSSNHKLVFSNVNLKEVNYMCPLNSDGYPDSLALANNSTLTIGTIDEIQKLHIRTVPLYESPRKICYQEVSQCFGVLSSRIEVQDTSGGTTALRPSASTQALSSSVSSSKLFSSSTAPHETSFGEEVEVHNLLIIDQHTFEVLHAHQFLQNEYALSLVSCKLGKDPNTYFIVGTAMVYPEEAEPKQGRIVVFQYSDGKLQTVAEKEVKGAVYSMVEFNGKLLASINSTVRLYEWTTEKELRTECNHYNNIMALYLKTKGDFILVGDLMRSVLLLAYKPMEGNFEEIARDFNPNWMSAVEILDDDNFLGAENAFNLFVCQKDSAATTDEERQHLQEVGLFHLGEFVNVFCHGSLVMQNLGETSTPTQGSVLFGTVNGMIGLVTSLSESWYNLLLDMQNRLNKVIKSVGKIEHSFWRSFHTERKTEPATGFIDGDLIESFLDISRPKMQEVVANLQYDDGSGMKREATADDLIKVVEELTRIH
UniProt Q13619: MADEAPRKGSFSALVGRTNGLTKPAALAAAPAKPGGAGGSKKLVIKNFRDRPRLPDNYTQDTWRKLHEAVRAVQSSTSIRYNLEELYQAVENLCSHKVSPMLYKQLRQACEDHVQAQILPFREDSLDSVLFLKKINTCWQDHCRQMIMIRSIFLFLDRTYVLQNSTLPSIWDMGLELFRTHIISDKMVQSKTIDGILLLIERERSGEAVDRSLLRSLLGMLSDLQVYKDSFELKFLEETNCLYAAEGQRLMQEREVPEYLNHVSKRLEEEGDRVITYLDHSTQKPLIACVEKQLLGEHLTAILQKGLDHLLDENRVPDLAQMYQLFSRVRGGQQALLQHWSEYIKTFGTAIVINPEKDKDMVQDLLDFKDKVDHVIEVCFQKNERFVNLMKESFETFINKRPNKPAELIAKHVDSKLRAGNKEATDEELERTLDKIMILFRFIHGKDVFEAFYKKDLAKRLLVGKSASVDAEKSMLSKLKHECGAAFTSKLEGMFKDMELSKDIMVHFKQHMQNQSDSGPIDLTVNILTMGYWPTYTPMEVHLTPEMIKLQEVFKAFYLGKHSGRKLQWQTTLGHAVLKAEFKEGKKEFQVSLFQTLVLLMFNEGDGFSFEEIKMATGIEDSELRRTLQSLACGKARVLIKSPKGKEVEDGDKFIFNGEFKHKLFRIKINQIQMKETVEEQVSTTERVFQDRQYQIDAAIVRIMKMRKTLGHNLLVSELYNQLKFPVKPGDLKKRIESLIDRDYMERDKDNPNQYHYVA

Legend:
[1] = target: HA-tagged DDB2 lacking the N-terminal 40 amino acids (human) (UniProt Q92466); test: co-IP; data not shown; co-immunoprecipitation of CUL4A with HA-DDB2 from WI38 VA13 transformants
[2] = target: HA-tagged wild-type DDB2 (human) (UniProt Q92466); test: as above
[3] = target: HA-tagged wild-type DDB2 (human) (UniProt Q92466); test: co-IP; soluble extracts (CSK buffer with 0.3 M NaCl) of WI38 VA13 cells stably expressing HA-DDB2, anti-HA (3F10) agarose beads overnight at 4°C, washed with CSK buffer with 0.3 M NaCl, eluted with SDS sample buffer
[4] = target: HA-tagged DDB2 lacking the N-terminal 40 amino acids (human) (UniProt Q92466); test: as above
FLAG-DDB1 = FLAG-DDB1 (UniProt Q16531); test: SEC; FLAG-DDB1–DDB2 complex (30 μg) incubated on ice for 1 h with 90 μg CUL4A–RBX1 complex, Superdex 200 PC 3.2/30 in 40 mM Tris–HCl pH 7.5, 1 mM EDTA, 0.1 M NaCl, 10% glycerol, 0.01% Triton X-100, 1 mM DTT; fractions containing the four subunits determined by SDS-PAGE and silver staining; both purified

Row | Substance | binding (FLAG-DDB1) | further results
1 | CUL4A (from UniProt Q13619 1-759) | – | binding [1]: binds
2 | CUL4A (from UniProt Q13619 1-759) (other; other documents disagree on this pair) | – | binding [2]: binds
3 | DDB1 (from UniProt Q16531 1-1140) | – | binding [3]: binds; binding [4]: binds
4 | DDB2 wild type (recombinant) (from UniProt Q92466 1-427) | binds | –
5 | DDB2-Ndel (recombinant) (from UniProt Q92466 41-427) (domain or fragment) | binds | –

More lines, main results first:

Row | binding (FLAG-DDB1) | Substance | further results
6 | binds | DDB2-BP5KR (recombinant) (from UniProt Q92466 1-427) | –
7 | binds | DDB2-Ndel/BP5KR (recombinant) (from UniProt Q92466 41-427) (domain or fragment) | –
